PubChem BioAssay AID1259254, NCATS – 2017
In all, the deposit lists about 59,000 reagents; this is an unselected part. In the full data, about 1,550 (2.6%) got an active call. 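G2 share is only a proxy for re-replication; each gene was hit by three separate siRNAs, and active genes were retested.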 Reagents against one gene are numbered here. Further read-outs or replicates are left out here. The record does not give: the amount of reagent.

Purpose: 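Finding genes that stop cells copying their DNA twice in one cycle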 (primary screen)
System: human HCT116 colorectal cancer cells
Reagent: single siRNA against human genes
Time to read-out: 3 days
Measurement: 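Nuclei stained with Hoechst and imaged; cell-cycle phase assigned by DNA content; G2 share scaled per plate, non-targeting siRNA 0%, GMNN siRNA 100%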
Reading the numbers: G2 robust z-score and G2 cells, % of GMNN control: higher = more G2 cells, more excess DNA replication
Call rule: 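Active siRNAs have a G2 robust z of 5 or more median absolute deviations over the median, which in these data means about 38% or higher of GMNN control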

DAZL #1 scored G2 robust z-score -0.376; G2 cells, % of GMNN control 0.323; inactive.
DAZL #2 showed G2 robust z-score 3.72; G2 cells, % of GMNN control 29.2; inactive.
Knock-down of DAZL #3 came out at: G2 robust z-score 2.46; G2 cells, % of GMNN control 20.3; inactive.
TAF1A #1 showed G2 robust z-score 1.55; G2 cells, % of GMNN control 13.9; inactive.
TAF1A #2 scored G2 robust z-score 0.676; G2 cells, % of GMNN control 7.72; inactive.
After knock-down of TAF1A #3 the results were G2 robust z-score -0.197; G2 cells, % of GMNN control 1.58; inactive.
Against NUP98 #1, the values are G2 robust z-score 3.4; G2 cells, % of GMNN control 26.9; inactive.
Knock-down of NUP98 #2 resulted in: G2 robust z-score 1.55; G2 cells, % of GMNN control 13.9; inactive.
NUP98 #3 showed G2 robust z-score -0.467; G2 cells, % of GMNN control -0.32; inactive.
Depletion of MATN4 #1 came out at: G2 robust z-score -0.924; G2 cells, % of GMNN control -3.53; inactive.
MATN4 #2 showed G2 robust z-score -0.958; G2 cells, % of GMNN control -3.77; inactive.
Against MATN4 #3, the entry reads G2 robust z-score -0.648; G2 cells, % of GMNN control -1.59; inactive.

3 entries from above, sorted by “G2 robust z-score”, descending.
DAZL #2 → G2 robust z-score = 3.72; G2 cells, % of GMNN control = 29.2; call = inactive
DAZL #3 → G2 robust z-score = 2.46; G2 cells, % of GMNN control = 20.3; call = inactive
DAZL #1 → G2 robust z-score = -0.376; G2 cells, % of GMNN control = 0.323; call = inactive

Further results follow:
DERA #1 showed G2 robust z-score 0.527; G2 cells, % of GMNN control 6.68; inactive.
Against DERA #2, the entry reads G2 robust z-score 0.22; G2 cells, % of GMNN control 4.52; inactive.
DERA #3 showed G2 robust z-score -0.385; G2 cells, % of GMNN control 0.26; inactive.
After knock-down of MYL6 #1 the results were G2 robust z-score 0.0886; G2 cells, % of GMNN control 3.59; inactive.
Silencing of MYL6 #2 resulted in: G2 robust z-score 0.628; G2 cells, % of GMNN control 7.38; inactive.
Knock-down of MYL6 #3 came out at: G2 robust z-score 1.18; G2 cells, % of GMNN control 11.3; inactive.
Depletion of FBP1 #1 resulted in: G2 robust z-score 4.15; G2 cells, % of GMNN control 32.2; inactive.
FBP1 #2 gave G2 robust z-score 1.38; G2 cells, % of GMNN control 12.7; inactive.
For FBP1 #3 the deposit lists G2 robust z-score -0.868; G2 cells, % of GMNN control -3.14; inactive.
With knock-down of AP5B1 #1, the screen gave G2 robust z-score 3.23; G2 cells, % of GMNN control 25.7; inactive.
Against AP5B1 #2 the deposit lists G2 robust z-score 1.18; G2 cells, % of GMNN control 11.3; inactive.
Knock-down of AP5B1 #3 resulted in: G2 robust z-score 1; G2 cells, % of GMNN control 10; inactive.
